These results are taken from publication PMC5362953.

By UniProt entry, the sequences of proteins in these tests, tags left out. Residues count along the entry.
UniProt Q9Y4K0, residues 26-774: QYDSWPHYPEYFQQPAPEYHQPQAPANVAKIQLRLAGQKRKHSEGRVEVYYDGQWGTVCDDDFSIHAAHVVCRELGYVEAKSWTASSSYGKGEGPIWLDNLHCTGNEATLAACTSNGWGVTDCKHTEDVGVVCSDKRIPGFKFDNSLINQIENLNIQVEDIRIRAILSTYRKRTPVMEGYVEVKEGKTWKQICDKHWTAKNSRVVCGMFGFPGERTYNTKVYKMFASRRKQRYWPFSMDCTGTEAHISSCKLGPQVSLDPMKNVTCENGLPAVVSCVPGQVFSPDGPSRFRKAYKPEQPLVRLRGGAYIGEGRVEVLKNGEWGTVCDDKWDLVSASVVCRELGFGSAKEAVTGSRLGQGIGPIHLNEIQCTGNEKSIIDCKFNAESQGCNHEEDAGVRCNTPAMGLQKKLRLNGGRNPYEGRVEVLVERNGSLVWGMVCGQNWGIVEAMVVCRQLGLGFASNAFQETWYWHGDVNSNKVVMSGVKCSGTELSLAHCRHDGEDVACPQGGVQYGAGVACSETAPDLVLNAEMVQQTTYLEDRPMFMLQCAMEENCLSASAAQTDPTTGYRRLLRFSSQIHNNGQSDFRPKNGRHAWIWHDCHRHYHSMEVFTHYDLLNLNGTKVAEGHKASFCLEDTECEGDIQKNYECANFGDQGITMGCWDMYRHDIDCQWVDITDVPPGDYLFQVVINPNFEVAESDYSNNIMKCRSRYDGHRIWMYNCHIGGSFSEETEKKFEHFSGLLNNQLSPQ
UniProt P11021, residues 19-654: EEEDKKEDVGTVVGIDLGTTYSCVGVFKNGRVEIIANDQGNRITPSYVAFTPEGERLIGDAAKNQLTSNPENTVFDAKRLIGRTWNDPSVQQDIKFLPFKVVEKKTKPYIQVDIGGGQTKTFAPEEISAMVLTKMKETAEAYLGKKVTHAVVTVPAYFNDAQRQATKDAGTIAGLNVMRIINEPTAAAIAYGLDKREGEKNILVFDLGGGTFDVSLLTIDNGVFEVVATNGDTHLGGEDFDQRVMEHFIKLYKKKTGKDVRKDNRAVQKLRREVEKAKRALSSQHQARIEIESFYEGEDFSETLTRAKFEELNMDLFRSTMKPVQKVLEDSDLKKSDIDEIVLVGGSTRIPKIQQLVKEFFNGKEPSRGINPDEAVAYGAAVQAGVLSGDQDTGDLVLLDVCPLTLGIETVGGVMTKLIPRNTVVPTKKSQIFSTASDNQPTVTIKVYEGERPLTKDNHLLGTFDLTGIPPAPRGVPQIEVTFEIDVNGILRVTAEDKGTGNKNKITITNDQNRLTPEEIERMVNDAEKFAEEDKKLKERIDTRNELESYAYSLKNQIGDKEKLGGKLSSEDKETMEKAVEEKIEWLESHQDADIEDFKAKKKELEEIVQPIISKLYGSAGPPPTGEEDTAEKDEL

Assay [1] has as its target Flag-tagged version of LOXL2 (lysyl oxidase-like 2), from pcDNA3-hLOXL2-Flag (human) (UniProt Q9Y4K0). The assay is described as follows: co-IP; HEK293T cells ectopically expressing LOXL2; performed as described in ref. 14.
Assay [2] addresses HSPA5 (endogenous in Hs578T cells) (human (endogenous in Hs578T)) (UniProt P11021). As to the kind of experiment: co-IP; total membranes of Hs578T cells solubilized in TXNE buffer (10 mM Tris-HCl pH 7.5, 150 mM NaCl, 2 mM EDTA, 1% Triton X-100); immunoprecipitated with anti-HSPA5 on Dynabeads Protein G 3 h at 4 °C; immunoblot. On the technique in general: Immunoblotting shows a protein as a band on a membrane.

No constants are given. Whether binding was seen depends on the method and setting. In cells and extracts the contact can be indirect. Some binding calls cover weakened binding; strength is not graded here.

For the substance “HSPA5 (endogenous in HEK293T cells) (from UniProt P11021 19-654)”, the binding result in assay [1] was “binds”.

Turning to “LOXL2 (endogenous in Hs578T cells) (from UniProt Q9Y4K0 26-774) (enzyme)”, the binding result in assay [2] is “binds”.
